# Publication PMC8577927
# Results are given in words; binding and its absence hold for the method and conditions named. In cells and extracts the contact can be indirect.
# Target: T1, Nuclear factor E2-related factor 2 (NRF2) (goat (endogenous in gEECs))
# T1 sequence: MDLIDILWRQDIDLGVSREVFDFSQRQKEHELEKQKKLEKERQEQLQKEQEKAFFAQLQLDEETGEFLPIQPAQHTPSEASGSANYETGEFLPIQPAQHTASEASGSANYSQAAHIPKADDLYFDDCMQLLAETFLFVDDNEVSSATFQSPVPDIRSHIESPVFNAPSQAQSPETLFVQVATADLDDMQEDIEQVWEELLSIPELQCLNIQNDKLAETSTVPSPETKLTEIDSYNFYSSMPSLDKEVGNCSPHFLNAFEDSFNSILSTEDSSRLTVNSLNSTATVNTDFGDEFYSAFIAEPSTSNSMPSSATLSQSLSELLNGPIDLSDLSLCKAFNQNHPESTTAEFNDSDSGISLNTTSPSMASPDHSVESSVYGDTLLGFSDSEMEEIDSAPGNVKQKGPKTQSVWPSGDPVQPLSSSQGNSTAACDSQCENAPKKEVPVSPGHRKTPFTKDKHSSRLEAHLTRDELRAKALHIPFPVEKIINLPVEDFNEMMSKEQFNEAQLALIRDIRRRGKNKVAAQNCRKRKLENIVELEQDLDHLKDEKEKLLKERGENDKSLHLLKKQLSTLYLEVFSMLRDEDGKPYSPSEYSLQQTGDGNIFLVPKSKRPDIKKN
# Assay: co-IP; NRF2 (D1Z9C) antibody added to 200 μg protein of gEEC lysate (8 μg/mL LPS for 12 hours) for 12 hours at 4°C, protein A/G beads; rabbit IgG as negative control; immunoblotting with NRF2, TLR4, IκBα and p65 antibodies
substance,measurement,value
toll-like receptor 4 (TLR4) (goat (endogenous in gEECs)),binding,no binding
